# Results: patent US20090181951A1, “PARP INHIBITORS” (KUDOS PHARMACEUTICALS LIMITED, priority 2006, published 2009)
# Some entries share one result that the patent states for a list of compounds.
# System: HeLa cells
# Test: Potentiation Factor (PF50) of MMS growth inhibition, SRB assay
# Format: cell-based
# Conditions: ratio IC50 control cell growth / IC50 cell growth + PARP inhibitor, MMS 0 to 10 μg/ml, compound at 500 nM
row,SMILES,PF50 at 500 nM
1,"CC(Oc1ccc(F)cc1C(N)=O)c1ccc(F)c(C(=O)N2CCNCC2)c1 (centres unmarked) [Compound 9, 5-Fluoro-2-{1-[4-fluoro-3-(piperazine-1-carbonyl)-phenyl]-ethoxy}-benzamide]",at least 1.5
2,CC(Oc1ccc(F)cc1C(N)=O)c1ccc(F)c(C(=O)N2CCN(C(=O)Nc3cccc(C(F)(F)F)c3)CC2)c1 (centres unmarked) [Compound 11],at least 1.5
3,Cc1cc(C)cc(NC(=O)N2CCN(C(=O)c3cc(C(C)Oc4ccc(F)cc4C(N)=O)ccc3F)CC2)c1 (centres unmarked) [Compound 12],at least 1.5
4,CC(Oc1ccc(F)cc1C(N)=O)c1ccc(F)c(C(=O)N2CCN(C(=O)C3CCCC3)CC2)c1 (centres unmarked) [Compound 13],at least 1.5
5,CC(Oc1ccccc1)C(=O)N1CCN(C(=O)c2cc(C(C)Oc3ccc(F)cc3C(N)=O)ccc2F)CC1 (centres unmarked) [Compound 14],at least 1.5
6,CC(Oc1ccc(F)cc1C(N)=O)c1ccc(F)c(C(=O)N2CCN(C(=O)c3ccc(F)cc3F)CC2)c1 (centres unmarked) [Compound 15],at least 1.5
7,CC(Oc1ccc(F)cc1C(N)=O)c1ccc(F)c(C(=O)N2CCN(C(=O)COCc3ccccc3)CC2)c1 (centres unmarked) [Compound 16],at least 1.5
8,CC(Oc1cc(F)c(F)cc1C(N)=O)c1ccc(F)c(C(=O)N2CCCNCC2)c1 (centres unmarked) [Compound 26b],at least 1.5
